The assay concerns the target OsJAZ11 (pBD-OsJAZ11) (rice (Oryza sativa)) (UniProt Q8GRS2). Put plainly: two-hybrid; Matchmaker Gold system, yeast strain Y2H Gold; bait in pGBKT7 (BD), prey in pGADT7 (AD); spotted on TDO, QDO and QDO with X-alpha-gal and Aureobasidin A; 30 °C, 3-4 days.

Amino acid sequences for entries named in this document (tags omitted). A change or cut given only in a name is not applied to a line headed by its entry.
UniProt Q8GRS2: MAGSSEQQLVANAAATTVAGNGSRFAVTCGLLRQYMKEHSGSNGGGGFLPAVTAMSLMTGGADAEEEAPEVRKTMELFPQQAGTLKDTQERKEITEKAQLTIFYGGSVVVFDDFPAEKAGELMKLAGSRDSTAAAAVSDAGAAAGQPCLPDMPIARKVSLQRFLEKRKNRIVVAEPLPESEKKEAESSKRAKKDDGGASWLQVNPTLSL
UniProt Q336P5: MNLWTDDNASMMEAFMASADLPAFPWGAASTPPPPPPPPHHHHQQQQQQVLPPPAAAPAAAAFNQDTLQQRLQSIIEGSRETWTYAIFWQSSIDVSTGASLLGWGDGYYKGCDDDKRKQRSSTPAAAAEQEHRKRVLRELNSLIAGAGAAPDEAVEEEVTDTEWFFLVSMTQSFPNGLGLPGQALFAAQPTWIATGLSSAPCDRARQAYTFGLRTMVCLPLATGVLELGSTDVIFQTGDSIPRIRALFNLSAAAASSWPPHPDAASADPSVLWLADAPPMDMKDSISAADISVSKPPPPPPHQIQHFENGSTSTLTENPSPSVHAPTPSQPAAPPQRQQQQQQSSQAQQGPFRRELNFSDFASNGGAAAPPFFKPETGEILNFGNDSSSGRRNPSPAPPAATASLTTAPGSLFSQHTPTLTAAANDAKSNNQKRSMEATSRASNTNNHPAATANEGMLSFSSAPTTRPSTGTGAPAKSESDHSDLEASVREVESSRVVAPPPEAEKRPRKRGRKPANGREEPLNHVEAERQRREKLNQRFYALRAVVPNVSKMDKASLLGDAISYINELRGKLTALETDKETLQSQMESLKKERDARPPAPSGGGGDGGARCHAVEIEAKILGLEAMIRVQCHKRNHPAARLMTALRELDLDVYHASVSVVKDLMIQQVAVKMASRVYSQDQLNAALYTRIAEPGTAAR

These are yes or no findings as the source states them, for the method shown. Binding calls can cover weak binding; strength is not graded here.

Take “OsMYC2 (pAD-OsMYC2) (from UniProt Q336P5 1-699)”: the binding result is on record as “binds”.
